Source: publication PMC11481398
Results are given in words; binding and its absence hold for the method and conditions named. Binding seen in cells or lysates may run through a third protein. Some results given as binding are weak or reduced against the parent protein; the word gives no strength.

The chains behind the UniProt entries cited, without tags or fusion partners.
UniProt Q00534: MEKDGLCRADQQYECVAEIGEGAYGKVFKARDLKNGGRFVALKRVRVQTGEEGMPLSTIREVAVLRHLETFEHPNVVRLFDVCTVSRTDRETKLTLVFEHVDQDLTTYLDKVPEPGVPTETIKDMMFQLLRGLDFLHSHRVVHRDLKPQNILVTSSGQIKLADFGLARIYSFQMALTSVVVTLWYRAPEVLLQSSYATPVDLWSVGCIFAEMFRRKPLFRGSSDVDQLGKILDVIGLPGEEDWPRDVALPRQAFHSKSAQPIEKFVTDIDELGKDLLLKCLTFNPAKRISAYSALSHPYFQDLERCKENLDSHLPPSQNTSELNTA
UniProt Q13619: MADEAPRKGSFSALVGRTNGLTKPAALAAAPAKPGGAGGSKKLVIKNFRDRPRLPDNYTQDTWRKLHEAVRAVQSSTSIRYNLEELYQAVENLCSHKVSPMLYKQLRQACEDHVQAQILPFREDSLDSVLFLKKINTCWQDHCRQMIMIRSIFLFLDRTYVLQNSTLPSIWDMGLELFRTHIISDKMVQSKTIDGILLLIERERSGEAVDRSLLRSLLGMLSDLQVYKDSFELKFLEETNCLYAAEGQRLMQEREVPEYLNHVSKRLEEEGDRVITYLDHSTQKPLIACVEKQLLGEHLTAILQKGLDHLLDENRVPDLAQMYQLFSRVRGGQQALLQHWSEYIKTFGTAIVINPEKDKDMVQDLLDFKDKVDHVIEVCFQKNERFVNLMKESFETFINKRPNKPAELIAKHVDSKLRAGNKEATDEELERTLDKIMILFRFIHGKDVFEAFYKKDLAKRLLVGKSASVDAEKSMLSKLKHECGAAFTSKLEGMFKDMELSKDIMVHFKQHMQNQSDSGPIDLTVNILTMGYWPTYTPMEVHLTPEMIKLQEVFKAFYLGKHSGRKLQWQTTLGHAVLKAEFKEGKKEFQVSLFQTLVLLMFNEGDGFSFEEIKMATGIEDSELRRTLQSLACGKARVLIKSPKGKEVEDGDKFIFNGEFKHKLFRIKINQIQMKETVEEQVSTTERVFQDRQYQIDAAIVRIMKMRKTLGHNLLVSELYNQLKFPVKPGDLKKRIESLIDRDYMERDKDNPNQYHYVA
UniProt P19532: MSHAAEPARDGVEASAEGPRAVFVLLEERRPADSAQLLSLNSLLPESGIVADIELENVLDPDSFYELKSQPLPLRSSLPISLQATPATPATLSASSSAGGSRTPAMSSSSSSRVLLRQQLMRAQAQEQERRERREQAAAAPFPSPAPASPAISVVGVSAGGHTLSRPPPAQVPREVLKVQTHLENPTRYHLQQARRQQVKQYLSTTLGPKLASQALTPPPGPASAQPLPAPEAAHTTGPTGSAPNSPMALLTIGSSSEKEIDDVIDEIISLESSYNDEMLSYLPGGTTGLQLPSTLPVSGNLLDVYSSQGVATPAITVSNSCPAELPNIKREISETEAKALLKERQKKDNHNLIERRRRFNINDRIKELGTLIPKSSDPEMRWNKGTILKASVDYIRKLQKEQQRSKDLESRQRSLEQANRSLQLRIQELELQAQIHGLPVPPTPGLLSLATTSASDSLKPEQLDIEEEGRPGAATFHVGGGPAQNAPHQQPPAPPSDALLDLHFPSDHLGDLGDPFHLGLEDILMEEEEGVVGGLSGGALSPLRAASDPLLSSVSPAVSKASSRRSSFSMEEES

Experiments:
[1] = biological target: Cyclin-dependent kinase 6 (human (endogenous in H69AR and H446DDP)) (UniProt Q00534); test: co-IP; endogenous proteins; H69AR and H446DDP cells with or without PD (0.5 µM) and LEE (0.8 µM), also scramble- or siAMBRA1-transfected H69AR cells; RIPA lysate, antibody or control IgG, protein A/G magnetic beads, western blot
[2] = biological target: Cyclin-dependent kinase 6 (human (endogenous in H69AR and H446DDP)) (UniProt Q00534); test: co-IP; endogenous proteins; cytosolic and nuclear fractions of H69AR and H446DDP cells; antibody or control IgG, protein A/G magnetic beads, western blot

| Substance | binding [1] | binding [2] |
| --- | --- | --- |
| CUL4A (from UniProt Q13619 1-759) | binds |  |
| TFE3 (from UniProt P19532 1-575) |  | binds |
